Measurements taken from PubChem BioAssay (EPA / NIEHS).
Where “and” joins values, the source holds several entries; their conditions need not be identical. Equal values may be shown once. This list was built around the results that the source calls inconclusive (neither active nor inactive); the mix of calls is not that of the screen. For part of these data: Where the call is inconclusive, the potency comes from a doubtful curve fit. Calls of active or inactive are those of the source. How the source made its calls: active means hit-call score of the fitted dose curve at least 0.9, where 1 is the maximum; inconclusive means response in the unintended direction; inactive means score below 0.9.

Chains of the proteins cited; added tags and fusions are not shown. Lines headed by an entry give the natural chain unless they say otherwise; changes in a name come on top.
UniProt P49841: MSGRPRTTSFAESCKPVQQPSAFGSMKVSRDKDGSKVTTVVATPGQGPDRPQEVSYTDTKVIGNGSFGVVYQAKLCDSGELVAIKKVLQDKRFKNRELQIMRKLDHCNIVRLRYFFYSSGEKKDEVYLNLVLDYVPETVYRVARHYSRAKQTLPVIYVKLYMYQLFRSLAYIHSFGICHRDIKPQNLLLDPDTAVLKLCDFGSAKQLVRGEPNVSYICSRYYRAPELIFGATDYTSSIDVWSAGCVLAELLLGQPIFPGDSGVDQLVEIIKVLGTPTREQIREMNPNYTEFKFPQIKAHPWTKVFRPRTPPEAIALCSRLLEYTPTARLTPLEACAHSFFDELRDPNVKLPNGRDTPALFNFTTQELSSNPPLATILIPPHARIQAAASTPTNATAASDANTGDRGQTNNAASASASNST
UniProt P03372, whole entry, looked up: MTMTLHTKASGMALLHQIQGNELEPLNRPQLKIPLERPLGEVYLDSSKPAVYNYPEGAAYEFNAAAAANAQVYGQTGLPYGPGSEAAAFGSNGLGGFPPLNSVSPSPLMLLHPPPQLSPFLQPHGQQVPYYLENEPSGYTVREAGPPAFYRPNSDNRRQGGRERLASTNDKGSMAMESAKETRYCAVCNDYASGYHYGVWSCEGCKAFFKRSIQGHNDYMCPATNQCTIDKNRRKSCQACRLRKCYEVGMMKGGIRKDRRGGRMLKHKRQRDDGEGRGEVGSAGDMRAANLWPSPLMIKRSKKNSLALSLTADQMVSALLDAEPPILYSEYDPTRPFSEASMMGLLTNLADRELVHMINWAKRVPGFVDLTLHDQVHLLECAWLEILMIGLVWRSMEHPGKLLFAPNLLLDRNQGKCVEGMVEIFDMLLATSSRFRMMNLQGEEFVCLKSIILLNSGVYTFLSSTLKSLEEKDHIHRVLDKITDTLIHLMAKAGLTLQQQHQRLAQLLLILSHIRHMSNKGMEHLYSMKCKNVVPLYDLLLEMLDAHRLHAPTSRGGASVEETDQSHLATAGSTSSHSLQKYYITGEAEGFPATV
UniProt P49884, whole entry, looked up: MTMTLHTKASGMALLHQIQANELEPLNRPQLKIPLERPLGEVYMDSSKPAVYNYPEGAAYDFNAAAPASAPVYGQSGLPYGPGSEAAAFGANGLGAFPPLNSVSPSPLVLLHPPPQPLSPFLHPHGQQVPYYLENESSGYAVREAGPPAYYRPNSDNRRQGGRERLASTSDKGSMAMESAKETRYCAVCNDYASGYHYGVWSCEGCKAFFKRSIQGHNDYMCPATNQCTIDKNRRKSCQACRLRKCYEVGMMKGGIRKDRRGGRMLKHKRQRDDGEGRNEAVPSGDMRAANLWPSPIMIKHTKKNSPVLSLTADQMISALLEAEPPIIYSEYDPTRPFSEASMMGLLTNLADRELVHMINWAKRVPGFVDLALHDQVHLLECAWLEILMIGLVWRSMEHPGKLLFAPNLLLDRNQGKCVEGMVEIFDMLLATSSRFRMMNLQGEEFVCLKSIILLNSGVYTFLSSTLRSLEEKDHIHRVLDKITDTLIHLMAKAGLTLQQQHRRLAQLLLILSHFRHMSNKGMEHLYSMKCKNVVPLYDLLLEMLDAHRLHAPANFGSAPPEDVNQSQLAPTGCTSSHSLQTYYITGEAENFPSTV
UniProt P10275: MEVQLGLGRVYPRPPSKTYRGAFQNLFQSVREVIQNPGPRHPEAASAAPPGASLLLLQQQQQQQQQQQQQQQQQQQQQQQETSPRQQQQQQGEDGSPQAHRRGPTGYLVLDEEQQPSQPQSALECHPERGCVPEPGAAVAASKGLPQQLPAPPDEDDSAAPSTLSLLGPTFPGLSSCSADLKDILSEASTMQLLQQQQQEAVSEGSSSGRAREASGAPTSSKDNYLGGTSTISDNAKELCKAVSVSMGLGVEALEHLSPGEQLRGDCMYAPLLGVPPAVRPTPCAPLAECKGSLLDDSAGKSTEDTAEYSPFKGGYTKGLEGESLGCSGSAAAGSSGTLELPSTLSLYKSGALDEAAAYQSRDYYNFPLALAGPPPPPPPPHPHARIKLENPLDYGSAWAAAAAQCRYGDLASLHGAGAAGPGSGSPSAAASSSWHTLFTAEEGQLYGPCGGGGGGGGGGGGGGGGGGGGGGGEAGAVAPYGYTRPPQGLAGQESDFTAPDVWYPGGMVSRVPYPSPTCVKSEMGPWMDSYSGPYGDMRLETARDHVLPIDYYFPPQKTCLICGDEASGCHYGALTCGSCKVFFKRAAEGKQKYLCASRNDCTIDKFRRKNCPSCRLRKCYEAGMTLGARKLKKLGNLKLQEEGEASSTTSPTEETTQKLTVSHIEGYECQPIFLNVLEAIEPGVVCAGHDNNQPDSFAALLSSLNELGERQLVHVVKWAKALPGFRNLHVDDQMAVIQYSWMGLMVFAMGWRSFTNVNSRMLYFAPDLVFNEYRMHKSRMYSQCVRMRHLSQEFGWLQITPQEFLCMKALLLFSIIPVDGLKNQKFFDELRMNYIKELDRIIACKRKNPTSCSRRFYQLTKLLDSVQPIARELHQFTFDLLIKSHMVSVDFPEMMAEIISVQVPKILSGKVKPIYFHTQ
UniProt P27815: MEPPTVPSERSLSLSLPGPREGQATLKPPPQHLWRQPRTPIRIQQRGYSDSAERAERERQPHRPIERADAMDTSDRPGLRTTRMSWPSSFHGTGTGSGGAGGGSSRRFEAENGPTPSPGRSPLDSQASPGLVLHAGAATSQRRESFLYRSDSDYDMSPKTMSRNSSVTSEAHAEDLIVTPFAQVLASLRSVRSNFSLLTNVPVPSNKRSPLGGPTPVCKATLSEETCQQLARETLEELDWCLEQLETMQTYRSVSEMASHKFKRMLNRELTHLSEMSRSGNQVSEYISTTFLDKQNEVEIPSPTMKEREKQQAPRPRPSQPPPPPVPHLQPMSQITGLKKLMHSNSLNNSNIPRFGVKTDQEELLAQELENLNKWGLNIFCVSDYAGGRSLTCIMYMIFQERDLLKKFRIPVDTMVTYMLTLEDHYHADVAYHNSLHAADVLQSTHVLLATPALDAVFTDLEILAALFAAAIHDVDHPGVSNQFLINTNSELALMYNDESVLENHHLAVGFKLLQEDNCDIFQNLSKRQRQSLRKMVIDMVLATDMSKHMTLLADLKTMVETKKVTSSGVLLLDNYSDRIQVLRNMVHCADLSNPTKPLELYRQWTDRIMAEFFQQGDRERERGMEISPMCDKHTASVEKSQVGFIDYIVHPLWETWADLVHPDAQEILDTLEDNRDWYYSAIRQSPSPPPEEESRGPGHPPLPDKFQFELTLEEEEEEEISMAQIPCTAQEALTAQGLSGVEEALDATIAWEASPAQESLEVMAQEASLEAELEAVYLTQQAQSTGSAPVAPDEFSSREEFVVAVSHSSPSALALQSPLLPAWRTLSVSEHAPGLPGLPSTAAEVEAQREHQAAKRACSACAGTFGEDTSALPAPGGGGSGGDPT
UniProt Q96RI1: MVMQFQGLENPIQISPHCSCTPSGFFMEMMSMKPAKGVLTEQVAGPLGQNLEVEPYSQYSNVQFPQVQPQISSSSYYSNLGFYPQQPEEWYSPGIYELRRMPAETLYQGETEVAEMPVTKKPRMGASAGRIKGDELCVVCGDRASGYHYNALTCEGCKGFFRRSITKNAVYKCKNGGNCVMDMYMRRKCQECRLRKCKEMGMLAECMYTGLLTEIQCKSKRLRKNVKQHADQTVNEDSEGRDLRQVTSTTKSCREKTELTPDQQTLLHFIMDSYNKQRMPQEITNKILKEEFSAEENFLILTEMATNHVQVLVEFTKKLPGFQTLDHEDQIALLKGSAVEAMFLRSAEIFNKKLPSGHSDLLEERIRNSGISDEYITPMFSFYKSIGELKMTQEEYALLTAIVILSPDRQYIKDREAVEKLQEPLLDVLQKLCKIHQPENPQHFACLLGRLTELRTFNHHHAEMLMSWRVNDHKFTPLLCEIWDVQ
UniProt P42336, whole entry, looked up: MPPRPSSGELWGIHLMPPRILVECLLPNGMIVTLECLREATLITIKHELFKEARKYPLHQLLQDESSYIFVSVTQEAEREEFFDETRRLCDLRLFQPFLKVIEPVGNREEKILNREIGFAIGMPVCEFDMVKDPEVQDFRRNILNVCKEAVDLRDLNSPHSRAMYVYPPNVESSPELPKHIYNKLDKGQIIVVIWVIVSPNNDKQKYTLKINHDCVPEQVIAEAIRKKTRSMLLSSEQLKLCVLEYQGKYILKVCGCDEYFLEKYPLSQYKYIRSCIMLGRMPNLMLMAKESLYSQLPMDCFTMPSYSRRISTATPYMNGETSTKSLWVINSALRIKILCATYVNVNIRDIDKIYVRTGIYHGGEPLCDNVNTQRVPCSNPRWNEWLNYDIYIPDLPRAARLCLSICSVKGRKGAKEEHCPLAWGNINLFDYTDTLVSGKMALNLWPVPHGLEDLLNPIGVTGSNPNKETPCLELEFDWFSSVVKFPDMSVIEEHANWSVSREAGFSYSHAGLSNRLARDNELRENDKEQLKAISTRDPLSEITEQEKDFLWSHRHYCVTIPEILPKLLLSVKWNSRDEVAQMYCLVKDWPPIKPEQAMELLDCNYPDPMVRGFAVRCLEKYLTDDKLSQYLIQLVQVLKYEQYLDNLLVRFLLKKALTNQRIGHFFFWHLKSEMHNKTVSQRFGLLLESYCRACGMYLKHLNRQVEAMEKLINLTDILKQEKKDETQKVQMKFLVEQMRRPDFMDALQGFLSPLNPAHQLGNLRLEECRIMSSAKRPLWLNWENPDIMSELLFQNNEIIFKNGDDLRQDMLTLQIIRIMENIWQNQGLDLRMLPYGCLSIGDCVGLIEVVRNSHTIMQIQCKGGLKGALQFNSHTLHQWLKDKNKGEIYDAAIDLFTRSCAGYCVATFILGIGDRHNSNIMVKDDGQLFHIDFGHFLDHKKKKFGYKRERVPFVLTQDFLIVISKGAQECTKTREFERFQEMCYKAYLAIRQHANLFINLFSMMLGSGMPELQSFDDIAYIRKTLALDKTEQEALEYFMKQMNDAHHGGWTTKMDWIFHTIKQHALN

Experiments:
[1] = molecular target: Glycogen synthase kinase-3 beta (Homo sapiens) (UniProt P49841); assay: NVS_ENZ_hGSK3b: NovaScreen (NVS) Enzymatic Assay for human Glycogen Synthase Kinase-3 beta (GSK3b) (AID 2283165)
Summary of the method: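 Recombinant enzyme with specific fluorescent substrate, 1 h, product separated by electrophoretic mobility shift. Primary duplicate screen at 25 uM; actives (e.g. 30% inhibition) followed in singleton concentration-response to 50 uM. Signal loss fitted versus DMSO.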

[2] = CCTE_Mundy_HCI_hNP1_Pro_ResponderAvgInten: CCTE's Proliferation Assay in human neuroprogenitor cells, Mundy Lab (AID 2284224);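 further: human neural progenitor cells hNP1 derived from WA09 embryonic stem cells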
Summary of the method: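 Proliferation was scored as BrdU labelling intensity in human neural progenitors derived from WA09 embryonic cells, measured 26.25 hours after chemical dosing. Activity was fitted relative to DMSO.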

[3] = Tanguay_ZF_120hpf_BRAI_legacy: (Legacy) Oregon State University Tanguay Lab 120 Hour Post-fertilization zebrafish Assay for Brain Malformation (AID 2283641)
Summary of the method: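 Brain malformation in Tropical 5D zebrafish was recorded as a binary endpoint after static compound exposure from early development to 120 hpf at 28C. Activity was analysed against DMSO as negative control.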

[4] = Tanguay_ZF_120hpf_CFIN_legacy: (Legacy) Oregon State University Tanguay Lab 120 Hour Post-fertilization zebrafish Assay for Caudal Fin Malformation (AID 2283649)
Summary of the method: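 Embryos were collected from Tropical 5D wild-type adults and dechorionated at 4 hpf. At 6 hpf each was exposed, one per well, at 0.64% DMSO and 28C. At 120 hpf fin morphology was scored; dead embryos were excluded.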

[5] = molecular target: Estrogen receptor (Homo sapiens) (UniProt P03372); assay: NVS_NR_hER: NovaScreen (NVS) Nuclear Receptor Binding Assay for human Estrogen Receptor (ER) (AID 2283348)
Summary of the method: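 Scintillation signal from bound radioligand was measured 18 hours after chemical addition to cell-free MCF7 protein extracts, with DMSO as baseline. Activity was scored as signal loss; compounds ran first at 25 uM in duplicate.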

[6] = Tanguay_ZF_120hpf_SNOU_legacy: (Legacy) Oregon State University Tanguay Lab 120 Hour Post-fertilization zebrafish Assay for Snout Malformation (AID 2283637)
Summary of the method: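 Snout malformation read as a yes/no call on brightfield images of 120 hpf larvae (Tropical 5D strain). Static exposure began at 6 hpf on dechorionated embryos in 0.64% DMSO, with gain of signal analysed versus DMSO controls.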

[7] = Tanguay_ZF_120hpf_NC_legacy: (Legacy) Oregon State University Tanguay Lab 120 Hour Post-fertilization zebrafish Assay for Notochord and Tail Malformation (AID 2283656)
Summary of the method: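 Dechorionated Tropical 5D wild-type zebrafish embryos, one per well from 6 hpf, statically exposed to 120 hpf at 28C in 0.64% DMSO final. Notochord distortion scored present/absent by brightfield; dead embryos excluded.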

[8] = molecular target: bovine Estrogen Receptor (ER), ESR1 (gene 407238) (UniProt P49884); assay: NVS_NR_bER: NovaScreen (NVS) Nuclear Receptor Binding Assay for bovine Estrogen Receptor (ER) (AID 2283345);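 further: actives lower the bound radioligand count which means they displace the ER ligand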
Summary of the method: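 Displacement of a radioligand from estrogen receptor in bovine uterine membrane preparations; scintillation signal taken at 18 hours, DMSO as baseline. Single-concentration duplicates (25 uM) preceded concentration-response follow-up of actives.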

[9] = Tanguay_ZF_120hpf_AXIS_legacy: (Legacy) Oregon State University Tanguay Lab 120 Hour Post-fertilization zebrafish Assay for Body Axis Malformation (AID 2283635);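 on AC50: potency for an increased fraction of larvae scored with body axis malformation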
Summary of the method: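 Static 6–120 hpf chemical exposure of dechorionated wild-type 5D zebrafish, one per well at 28C; morphology endpoint scored binary at 120 hpf relative to DMSO control.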

[10] = Tanguay_ZF_120hpf_EYE_legacy: (Legacy) Oregon State University Tanguay Lab 120 Hour Post-fertilization zebrafish Assay for Eye Malformation (AID 2283636)
Summary of the method: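 Read-out is binary presence or absence of eye malformation, scored by brightfield microscopy at 120 hpf. Single larvae were exposed from 6 hpf in embryo medium containing 0.64% DMSO, with DMSO as baseline.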

[11] = molecular target: Nucleoli Translocation, AR (gene 367) (UniProt P10275); assay: UPITT_HCI_U2OS_AR_TIF2_Nucleoli_Antagonist: University of Pittsburgh U2OS Androgen Receptor-Transcriptional Intermediary Factor 2 (AR-TIF2) Antagonism High Content Imaging Assay for Nucleoli Translocation (AID 2283997)
Summary of the method: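 Measured quantity was AR-RFP fluorescence localized to nucleoli in engineered U2OS cells also bearing TIF2-GFP, acquired on automated high-content imagers. Primary testing used 20 uM compound; actives were confirmed in triplicate wells.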

[12] = molecular target: Ratio of Nucleoli Translocation and Cytoplasm, AR (gene 367) (UniProt P10275); assay: UPITT_HCI_U2OS_AR_TIF2_Nucleoli_Cytoplasm_Ratio_Antagonist: University of Pittsburgh U2OS Androgen Receptor-Transcriptional Intermediary Factor 2 (AR-TIF2) Antagonism High Content Imaging Assay for Ratio of Nucleoli Translocation and Cytoplasm (AID 2283999);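 further: antagonists lower the DHT-driven ratio of nucleolar to cytoplasmic red signal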
Summary of the method: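 U2OS cells co-expressing RFP-tagged human AR and GFP-tagged TIF2, antagonist mode with DHT as baseline. Nucleolar-to-cytoplasmic red fluorescence ratio imaged by high-content microscopy; final compound 20 uM (0.2% DMSO) primary, 0.195–50 uM (0.5% DMSO) concentration-response.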

[13] = CCTE_Shafer_MEA_acute_AB: CCTE's Alamar Blue Assay for Cytotoxicity in the Neural Acute Assay, Shafer Lab (AID 2284069);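 further: active compounds lower the viability signal compared with DMSO wells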
Summary of the method: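 Resazurin reduction (CellTiter Blue, 1:6 in fresh medium) read at ex 544/em 590 nm marks viability loss relative to DMSO. Cells: primary rat cortical neuron networks on microelectrode arrays, treated after baseline recording at 13 or 15 days in vitro.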

[14] = molecular target: human Adenosine A2a Receptor (AdoRA2a), ADORA2A (gene 135) (UniProt P29274); assay: NVS_GPCR_hAdoRA2a: NovaScreen (NVS) G Protein-Coupled Receptor Assay for human Adenosine A2a Receptor (AdoRA2a) (AID 2283256)
Summary of the method: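 Radioligand displacement on HEK293-derived membrane protein, cell-free; filter-based scintillation counting 1.5 hours after dosing, loss of signal vs DMSO. Single-point duplicate screen at 25 uM, actives retested in concentration series.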

[15] = molecular target: human Phosphodiesterase 4A1 (PDE4A1), PDE4A (gene 5141) (UniProt P27815); assay: NVS_ENZ_hPDE4A1: NovaScreen (NVS) Enzymatic Assay for human Phosphodiesterase 4A1 (PDE4A1) (AID 2283191)
Summary of the method: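 Cell-free recombinant human PDE4A1 with fluorescent substrate; product separated by electrophoretic mobility shift, 1 h. Screened at 25 uM, then up to 50 uM in concentration-response; loss of signal fitted against DMSO.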

[16] = molecular target: Bile acid receptor (Homo sapiens) (UniProt Q96RI1); assay: OT_FXR_FXRSRC1_0480: Odyssey Thera (OT) 8-hour HEK293T Protein-Complementation Assay for Farnesoid X receptor/SRC-1 Co-activator (AID 2283383)
Summary of the method: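 HEK293T protein-fragment complementation assay: FXR and SRC-1 coactivator are fused to reporter fragments, and their interaction restores a fluorescent reporter. Readout was taken 8 h after dosing, with gain of signal fit relative to DMSO.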

[17] = molecular target: Ratio of Nucleoli Translocation and Cytoplasm, AR (gene 367) (UniProt P10275); assay: UPITT_HCI_U2OS_AR_TIF2_Nucleoli_Cytoplasm_Ratio_Agonist: University of Pittsburgh U2OS Androgen Receptor-Transcriptional Intermediary Factor 2 (AR-TIF2) Agonism High Content Imaging Assay for Ratio of Nucleoli Translocation and Cytoplasm (AID 2284000);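 further: hits raise the red nucleolar to cytoplasm ratio above vehicle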
Summary of the method: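 Read-out first: nucleolar-to-cytoplasm ratio of red (AR-RFP) signal, quantified by high-content imaging in U2OS cells co-expressing TIF2-GFP. Activity is scored as signal increase over DMSO. Single-point screening used 20 uM final (0.2% DMSO).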

[18] = molecular target: human Phosphoinositide 3-kinase alpha (PI3Ka), PIK3CA (gene 5290) (UniProt P42336); assay: NVS_ENZ_hPI3Ka: NovaScreen (NVS) Enzymatic Assay for human Phosphoinositide 3-kinase alpha (PI3Ka) (AID 2283196)
Summary of the method: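 Enzyme activity as fluorescence after mobility-shift separation of substrate and product, 1 h reaction, recombinant human PI3Kα; concentration-response to 50 uM max for chemicals passing a 25 uM duplicate screen.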

In the case of Cn1c(=O)c2c(ncn2C)n(C)c1=O, the AC50 [1] is reported as inconclusive: 12.2 µM and the AC50 [2] is reported as inconclusive: 0.00017 µM.
For CCCCCCCCCCCCCCCC, the AC50 [3] was inconclusive: 1.48 nM and the outcome [4] was “inactive”.
In the case of CC(O)CO (stereo unspecified), the AC50 [5] is reported as inconclusive: 25 µM.
In the case of CCCCCCC(C)OC(=O)COc1nc(F)c(Cl)c(N)c1Cl (stereo unspecified), the AC50 [6] is reported as inconclusive: 110 µM, the AC50 [4] is reported as inconclusive: 1.95 µM and the outcome [7] is reported as “inactive”.
In the case of CC(C)(c1ccccc1)c1ccc(Nc2ccc(C(C)(C)c3ccccc3)cc2)cc1, the outcome [8] is reported as “inactive”.
With Oc1ccc(Nc2ccccc2)cc1 the AC50 [8] was active: 25 µM and the AC50 [5] was inconclusive: 6.56 µM and active: 8.86 µM.
With CC(=O)Oc1ccccc1C(=O)O the outcome [9] was “inactive”, the AC50 [10] was inconclusive: 202 µM and the outcome [7] was “inactive”. For the same compound, the AC50 [11] was inconclusive: 50 µM, the AC50 [12] was inconclusive: 11.8 µM and the AC50 [13] was inconclusive: 20 µM. For the same compound, the AC50 [2] was inconclusive: 15 µM.
In the case of O=C(O)C(F)(F)C(F)(F)OC(F)(F)F, the outcome [2] is reported as “inactive”.
With Nc1ccc(Cl)c([N+](=O)[O-])c1 the outcome [14] was “inactive”.
For CC(=O)OCC(COC(C)=O)OC(C)=O, the AC50 [1] was inconclusive: 25 µM and the AC50 [9] was inconclusive: 1.61 µM.
In the case of CNS(=O)(=O)c1cc(C(=O)N2CCC(CCN3C4CCC3CC(n3c(C)nc5ccccc53)C4)(c3cccc(F)c3)CC2)c(Cl)cc1F (stereo unspecified), the outcome [15] is reported as “inactive”, the AC50 [16] is reported as active: 12.6 µM and the outcome [9] is reported as “inactive”. The outcome [3] was “inactive”, the AC50 [4] was inconclusive: 166 µM and the AC50 [17] was inconclusive: 50 µM.
With CC(=O)Nc1ccc(C(=O)CCl)cc1 the AC50 [18] was inconclusive: 156 nM.
With CC(=O)OC1CCCCC1C(C)(C)C (stereo unspecified) the AC50 [11] was inconclusive: 50 µM and the AC50 [12] was inconclusive: 50 µM.
With CCc1cccc(C)c1N the AC50 [17] was inconclusive: 50 µM.
With Cc1cccc2c1ccc1ccccc12 the AC50 [14] was inconclusive: 25 µM.
With CC(C)[C@@H]1CC[C@@H](C)C[C@H]1O the AC50 [12] was inconclusive: 50 µM and the AC50 [17] was inconclusive: 50 µM.
In the case of CCCCCCCCCCCCCOS(=O)(=O)O, the AC50 [12] is reported as inconclusive: 24.1 µM.
With CCOCCOCCO the outcome [1] was “inactive”, the outcome [4] was “inactive” and the outcome [11] was “inactive”.
With O=c1c(-c2ccc(O)cc2)coc2cc(O)cc(O)c12 the AC50 [14] was active: 6.03 µM.
In the case of CCCCC(CC)COC(=O)c1ccc(C(=O)OCC(CC)CCCC)cc1 (stereo unspecified), the AC50 [1] is reported as inconclusive: 25 µM, the outcome [11] is reported as “inactive” and the AC50 [12] is reported as inconclusive: 50 µM. The AC50 [17] was inconclusive: 50 µM.
In the case of COc1ccc(O)cc1, the AC50 [11] is reported as inconclusive: 50 µM, the AC50 [12] is reported as inconclusive: 4.07 µM and the AC50 [17] is reported as inconclusive: 50 µM.
For CCCOC(=O)NCCCN(C)C, the AC50 [6] was inconclusive: 33.1 µM and the outcome [7] was “inactive”.
With CC(=O)O the AC50 [6] was inconclusive: 9.32 µM and the AC50 [4] was inconclusive: 41 µM.
